In PubChem BioAssay AID493014 (National Center for Advancing Translational Sciences (NCATS), 2011):
This is one part of the list. The main result of the screen is listed elsewhere. These columns were measured beside it and carry no call. Most of these compounds were active or inconclusive in the main read-out, so they are no random draw. The note in brackets gives the kind of curve behind each potency; many fits are weak.

Test: qHTS Assay to Find Inhibitors of Chronic Active B-Cell Receptor Signaling
Conditions: ABC-DLBCL IkBa-CBG/CBR reporter, luminescence ratio (green luciferase fused to IkBa over red control in TMD8 lymphoma cells), 4 h
How it was run: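 Doxycycline induced both beetle luciferases in TMD8 lymphoma cells; IKK-driven degradation limits the IkappaBalpha-fused green signal, while red luminescence normalises for cell number and nonspecific effects. Compounds tested up to 46 uM, 4 hrs.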

[1] = measured here: CBR red luminescence, cell number
[2] = measured here: IkBa-CBG green luminescence

Row | Compound | AC50 [1] | AC50 [2]
1 | Cc1nnc(NC(=O)c2nc(S(=O)(=O)Cc3ccccc3)ncc2Cl)s1 | 15.8 µM [falling, partial curve] | –
2 | Cc1nc(Nc2ccccc2)sc1C(=O)c1ccccc1 | 14.1 µM [falling, partial curve, poor fit] | –
3 | Cc1ccc(OCC(=O)Nc2ccc3c(c2)nc(CCN2CCOCC2)n3C)cc1 | 5.62 µM [rising, single point] | –
4 | COc1ccc(C(=O)NCC(c2ccco2)N2CCc3ccccc32)cc1 (centres undefined) | 29.1 µM [rising, single point] | 18.4 µM [falling, single point]
5 | N#C/C(=C\c1ccc(-c2cccc([N+](=O)[O-])c2)o1)C(=O)NCCN1CCOCC1 | 35.5 µM [rising, single point] | –
6 | CCCCS(=O)(=O)Nc1ccc2cn[nH]c2c1 | 10 µM [falling, partial curve, poor fit] | –
7 | COCC(=O)NC(c1ccccc1)c1ccccc1 | 0.092 µM [falling, full curve, poor fit] | –
8 | CCCNC(=O)c1nn2cc(Br)cnc2c1Cl | 12.6 µM [rising, single point] | –
9 | Cc1coc(C)c1C(=O)CC1(O)C(=O)N(CCc2ccccc2)c2ccccc21 (centres undefined) | 13 µM [falling, partial curve, poor fit] | –
10 | COc1cccc(CNC(=O)CN(C)S(=O)(=O)c2ccc3c(c2)CC(C)N3C(C)=O)c1 (centres undefined) | 31.6 µM [falling, partial curve, poor fit] | –
11 | CCOC(=O)N1CCN(C(=O)CNC(=O)c2ccc(Cl)cc2)CC1 | 35.5 µM [rising, partial curve, poor fit] | –
12 | CC(=O)N1CCN=C1SCc1cccc(C(F)(F)F)c1 | 18.4 µM [rising, partial curve] | 32.6 µM [falling, partial curve, poor fit]
13 | COc1ccc(N2CCN(C(=O)CCc3ccc(S(=O)(=O)NC(C)C)cc3)CC2)cc1 | 23.1 µM [falling, partial curve, poor fit] | –
14 | Cc1cc(C(=O)N2CC=C(c3ccccc3)CC2)c2ccccc2n1 | 29.1 µM [rising, single point] | 18.4 µM [falling, single point]
15 | CN1CCN(C(=O)c2cc3nc(-c4ccccc4)cc(-c4ccccc4)n3n2)CC1 | 20.6 µM [falling, single point] | –
16 | Cc1c(OCC(=O)N2CCC(C(=O)O)CC2)ccc2c3c(c(=O)oc12)CCCC3 | 22.4 µM [falling, single point] | –
17 | CO/N=C/NC(=O)NOCc1ncc(C(F)(F)F)cc1Cl | 8.2 µM [rising, partial curve, poor fit] | –
18 | Cn1cccc1Cc1nnc(SCC(=O)Nc2nccs2)n1C | 17.8 µM [falling, partial curve] | –
19 | O=C(O)c1ccc2c(c1)C(=O)/C(=C/c1ccccc1)C2=O | 1.84 µM [falling, full curve] | –
20 | CCN(CC)CCN1C(=O)C(=O)/C(=C(/O)c2ccncc2)C1c1ccccc1 (centres undefined) | 35.5 µM [rising, single point] | –

Row | Compound | AC50 [1] | AC50 [2]
21 | Cc1cc(C)cc(NC(=O)CCCN2C(=O)C(c3ccccc3)Oc3cccnc32)c1 (centres undefined) | 22.4 µM [falling, single point] | –
22 | O=C(CCc1ccccc1Cl)Nc1cc2c(cc1C(=O)O)OCCCO2 | 29.1 µM [rising, single point] | –
23 | O=C(Nc1cccc(N2C(=O)C=CC2=O)c1)c1cccs1 | 20.6 µM [falling, single point] | –
24 | COc1ccccc1/C=C/C=N/n1c(-c2ccncc2)n[nH]c1=S | 18.4 µM [falling, partial curve, poor fit] | –
25 | COc1cc(CNC2CCCC2)c(Br)cc1OC1CCCC1 | 14.1 µM [falling, single point] | –
26 | O=C(Nn1c(O)c(C=C2N=c3ccccc3=N2)sc1=S)c1ccccc1Cl | 10.3 µM [falling, partial curve, poor fit] | –
27 | Cc1cc(N2CCOCC2)nc2ccc(NC(=S)N3CCCCC3C)cc12 (centres undefined) | 35.5 µM [falling, single point] | –
28 | CC(=N)c1c(O)c2ccccc2oc1=O | 14.1 µM [falling, partial curve, poor fit] | –
29 | CCOC(=O)CN1C(=O)C(Sc2n[nH]c(-c3ccc(C)cc3)n2)CCc2ccccc21 (centres undefined) | 5.62 µM [falling, partial curve, poor fit] | –
30 | C=CCN=c1sc(C(=O)OC)cc(=O)n1CC=C | 17.8 µM [falling, single point] | –
31 | CCOc1ccc(C(=O)Nc2ccc3c(c2)OCCO3)cc1[N+](=O)[O-] | 3.55 µM [falling, full curve, poor fit] | –
32 | CCOC(=O)Cn1nnc(-c2ccc([N+](=O)[O-])cc2)n1 | 20 µM [rising, single point] | –
33 | Cc1ccc2ccc(C(Nc3ccccn3)c3ccccc3)c(O)c2n1 (centres undefined) | 35.5 µM [falling, single point] | –
34 | O=C(Nc1nnc(-c2ccccc2F)s1)Nc1ccccc1F | 10 µM [rising, partial curve, poor fit] | –
35 | O=C(OC(C(=O)Nc1ccc(Cl)c(C(F)(F)F)c1)c1ccccc1)C1=COCCO1 (centres undefined) | 29.1 µM [falling, single point] | –
36 | Cc1ccc(S(=O)(=O)c2nc(-c3ccccc3Cl)oc2N2CCN(C)CC2)cc1 | 0.231 µM [rising, full curve, poor fit] | –
37 | N/C(Cc1ccc([N+](=O)[O-])cc1)=N\OC(=O)C1CCCCC1 | 10 µM [falling, partial curve] | –
38 | COc1ccc(NCC(O)Cn2c(C)c(C)c3ccccc32)cc1 (centres undefined) | 8.91 µM [falling, partial curve] | –
39 | Clc1cccc(CSc2nnc(-c3sccc3-n3cccc3)o2)c1 | 14.1 µM [rising, single point] | –
40 | C/C(=N\NC(=S)Nc1c(C)cccc1C)c1ccc(OC(F)F)cc1 | 1.03 µM [rising, full curve, poor fit] | 18.4 µM [falling, single point]

Records 23–24, quoted:
Row | Compound | AC50 [1] | AC50 [2]
23 | O=C(Nc1cccc(N2C(=O)C=CC2=O)c1)c1cccs1 | 20.6 µM [falling, single point] | –
24 | COc1ccccc1/C=C/C=N/n1c(-c2ccncc2)n[nH]c1=S | 18.4 µM [falling, partial curve, poor fit] | –
